No constants are given. Whether binding was seen depends on the method and setting. In cells and extracts the contact can be indirect. Some entries that bind do so weakly or less than the wild type. For some assays here: Tags and fused reporters may be left off the sequences shown.

Amino acid sequences for entries named in this document (tags omitted). Residues count along the entry.
UniProt O14727, residues 1-90: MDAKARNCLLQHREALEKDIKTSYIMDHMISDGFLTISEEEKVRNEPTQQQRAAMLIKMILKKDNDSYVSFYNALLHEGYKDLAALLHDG
UniProt Q9I9N6: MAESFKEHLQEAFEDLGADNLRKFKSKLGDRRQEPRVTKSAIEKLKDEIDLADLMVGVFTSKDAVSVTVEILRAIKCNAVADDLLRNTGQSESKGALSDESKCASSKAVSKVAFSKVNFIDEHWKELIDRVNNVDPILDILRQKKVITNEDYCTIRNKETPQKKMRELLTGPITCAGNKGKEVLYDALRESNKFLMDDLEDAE

The target of experiment [1] is APAF1^CARD, mEos3.1 fusion (human) (UniProt O14727). Description: FRET or BRET; DAmFRET of a DFD-mEos3 fusion with a DFD-μNS-mCardinal seed expressed in trans in S. cerevisiae; the FRET is between copies of the mEos3 fusion; a nucleating interaction is a lower C50 and a larger assembled fraction (seedability at least 3 SD above the mean). On the technique in general: In BRET a luciferase serves as donor, and the signal depends on an acceptor being close.

For experiment [2], the target named is ASC from zebrafish (Danio rerio), mEos3.1 fusion (Danio rerio) (UniProt Q9I9N6). Nature of the experiment: FRET or BRET; DAmFRET: ratiometric FRET (AmFRET) between the green and the photoconverted red form of mEos3.1 fused to the same protein, single living S. cerevisiae cells by flow cytometry over the range of expression, no seed.
Experiment [3] deals with T1, FADD, full-length (FADD^FL), mEos3.1 fusion (human), Q13158.
T1 chain: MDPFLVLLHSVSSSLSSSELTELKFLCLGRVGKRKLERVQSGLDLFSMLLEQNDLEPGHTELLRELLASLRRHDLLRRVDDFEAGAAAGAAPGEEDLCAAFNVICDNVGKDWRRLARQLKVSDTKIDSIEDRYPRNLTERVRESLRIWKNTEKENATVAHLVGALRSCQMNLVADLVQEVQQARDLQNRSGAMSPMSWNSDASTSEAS
The description is as above. Particulars: remark: other sources report otherwise.

Experiment [4] has as its target T1, FADD, full-length (FADD^FL), mEos3.1 …. Description: FRET or BRET; DAmFRET of a DFD-mEos3 fusion with a DFD-μNS-mCardinal seed expressed in trans in S. cerevisiae; the FRET is between copies of the mEos3 fusion; a nucleating interaction is a lower C50 and a larger assembled fraction (seedability at least 3 SD above the mean). Particulars: remark: other sources report otherwise.

Experiment [5] addresses T2, DFD of CASP1 (CASP1^CARD), mEos3.1 fusion (human), P29466.
T2 chain: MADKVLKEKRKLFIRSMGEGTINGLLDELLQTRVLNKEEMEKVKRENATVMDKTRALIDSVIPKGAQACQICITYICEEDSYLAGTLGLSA
Description: FRET or BRET; DAmFRET: ratiometric FRET (AmFRET) between the green and the photoconverted red form of mEos3.1 fused to the same protein, single living S. cerevisiae cells by flow cytometry over the range of expression, no seed. Particulars: remark: other sources report otherwise.

Experiment [6] has as its target CARD9^CARD, mEos3.1 fusion (human) (UniProt Q9H257). The description is as above.
Experiment [7] deals with BCL10, full-length (FL), mEos3.1 fusion (human) (UniProt O95999). The description is as above.
For experiment [8], the target named is T3, TRADD, full-length (FL), mEos3.1 fusion (human), Q15628.
T3 chain: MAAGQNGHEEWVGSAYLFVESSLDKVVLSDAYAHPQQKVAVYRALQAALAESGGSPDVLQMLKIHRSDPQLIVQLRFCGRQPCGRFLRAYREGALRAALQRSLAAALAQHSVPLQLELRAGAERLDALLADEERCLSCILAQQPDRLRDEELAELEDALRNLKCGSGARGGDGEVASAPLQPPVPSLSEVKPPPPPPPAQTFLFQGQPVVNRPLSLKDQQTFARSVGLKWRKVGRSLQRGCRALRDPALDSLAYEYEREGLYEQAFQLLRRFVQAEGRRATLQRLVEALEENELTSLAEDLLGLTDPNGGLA
Described as above. Particulars: remark: other sources report otherwise.

With “APAF1^CARD, mEos3.1 fusion (from UniProt O14727 1-90) (domain or fragment)”, in experiment [1], the binding entry was “no binding”.

For the molecule “ASC from zebrafish (Danio rerio), mEos3.1 fusion (from UniProt Q9I9N6 1-203)”, in experiment [2], the binding entry is reported as “binds”.

B1: FADD, full-length (FADD^FL), mEos3.1 fusion, Q13158 1-208 (protein)
chain: MDPFLVLLHSVSSSLSSSELTELKFLCLGRVGKRKLERVQSGLDLFSMLLEQNDLEPGHTELLRELLASLRRHDLLRRVDDFEAGAAAGAAPGEEDLCAAFNVICDNVGKDWRRLARQLKVSDTKIDSIEDRYPRNLTERVRESLRIWKNTEKENATVAHLVGALRSCQMNLVADLVQEVQQARDLQNRSGAMSPMSWNSDASTSEAS
In the case of B1, the binding result in experiment [3] and in experiment [4] was “binds” in each case.

B2: DFD of CASP1 (CASP1^CARD), mEos3.1 fusion, P29466 1-91 (domain or fragment)
chain: MADKVLKEKRKLFIRSMGEGTINGLLDELLQTRVLNKEEMEKVKRENATVMDKTRALIDSVIPKGAQACQICITYICEEDSYLAGTLGLSA
As for B2, the binding result in experiment [5] is “binds”.

B3: CARD9^CARD, mEos3.1 fusion (domain or fragment, UniProt Q9H257 6-98)
chain: NDDECWSVLEGFRVTLTSVIDPSRITPYLRQCKVLNPDDEEQVLSDPNLVIRKRKVGVLLDILQRTGHKGYVAFLESLELYYPQLYKKVTGKE
On to B3, for which, in experiment [6], the binding result was “binds”.

B4: BCL10, full-length (FL), mEos3.1 fusion (protein, UniProt O95999 1-233)
chain: MEPTAPSLTEEDLTEVKKDALENLRVYLCEKIIAERHFDHLRAKKILSREDTEEISCRTSSRKRAGKLLDYLQENPKGLDTLVESIRREKTQNFLIQKITDEVLKLRNIKLEHLKGLKCSSCEPFPDGATNNLSRSNSDESNFSEKLRASTVMYHPEGESSTTPFFSTNSSLNLPVLEVGRTENTIFSSTTLPRPGDPGAPPLPPDLQLEEEGTCANSSEMFLPLRSRTVSRQ
Take B4: the binding entry in experiment [7] is reported as “binds”.

B5: TRADD, full-length (FL), mEos3.1 fusion, Q15628 1-312 (protein)
chain: MAAGQNGHEEWVGSAYLFVESSLDKVVLSDAYAHPQQKVAVYRALQAALAESGGSPDVLQMLKIHRSDPQLIVQLRFCGRQPCGRFLRAYREGALRAALQRSLAAALAQHSVPLQLELRAGAERLDALLADEERCLSCILAQQPDRLRDEELAELEDALRNLKCGSGARGGDGEVASAPLQPPVPSLSEVKPPPPPPPAQTFLFQGQPVVNRPLSLKDQQTFARSVGLKWRKVGRSLQRGCRALRDPALDSLAYEYEREGLYEQAFQLLRRFVQAEGRRATLQRLVEALEENELTSLAEDLLGLTDPNGGLA
With B5, the binding entry in experiment [8] was “binds”.

Source of the values: publication doi:10.1101/2023.03.20.533581.
